Values from PubChem BioAssay AID652237 (Broad Institute, 2013).
Of all reagents, 1 (14%) were called active. 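Only yes/no calls were deposited; the ATP values and statistics behind them are not available.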 Not stated in the record: the amount of reagent.

- Test: 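Does silencing of proteins that a protective compound binds block beta-cell death induced by cytokine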 (follow-up of hits)
- System: INS-1E rat insulinoma beta-cell line
- Knock-down reagent: siRNA against rat genes
- Time to read-out: about 120 h (72 h knock-down, then 48 h cytokines)
- Challenge: cytokine mixture for 48 h; composition and doses not stated
- Read-out: 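Luminescent measure of cellular ATP after cytokine exposure, with each knock-down compared to neutral control wells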
- Rule for the call: 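Counted as active when ATP is significantly above the neutral control, showing the cytokine-driven ATP loss was blocked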

| Target gene | significant ATP rise over control | call |
| --- | --- | --- |
| Usp9x (ubiquitin specific peptidase 9, X-linked) | significant ATP rise over neutral control (protection from cytokine death) | active |
| Xpo1 (exportin 1) | no significant ATP rise over neutral control | inactive |
| Mcm6 (minichromosome maintenance complex component 6) | no significant ATP rise over neutral control | inactive |
| Kpna4 (karyopherin subunit alpha 4) | no significant ATP rise over neutral control | inactive |
| Blvrb (biliverdin reductase B) | no significant ATP rise over neutral control | inactive |
| Gapdh (glyceraldehyde-3-phosphate dehydrogenase) | no significant ATP rise over neutral control | inactive |
| Ipo9 (importin 9) | no significant ATP rise over neutral control | inactive |
